Our source for the Ki values is ChEMBL document CHEMBL5131436, “Dual Sigma-1 receptor antagonists and hydrogen sulfide-releasing compounds for pain treatment: Design, synthesis, and pharmacological evaluation” (Eur J Med Chem, 2022).

In this assay the target is T1, Sigma intracellular receptor 2 (Rattus norvegicus, UniProt Q5U3Y7).
T1 sequence (Q5U3Y7 whole entry): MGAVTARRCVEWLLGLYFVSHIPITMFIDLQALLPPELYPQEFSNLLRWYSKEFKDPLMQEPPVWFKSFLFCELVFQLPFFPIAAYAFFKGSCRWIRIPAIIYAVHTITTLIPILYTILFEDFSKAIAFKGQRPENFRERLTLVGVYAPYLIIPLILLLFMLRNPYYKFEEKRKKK
Briefly: biochemical.

Broadly, the Ki is the dissociation constant of the complex between target and ligand, obtained from inhibition or displacement. Lower therefore signals higher affinity. Take `OC(CCCN1CCC(O)(c2ccc(Cl)cc2)CC1)c1ccc(F)cc1` (racemic) [HYDROXYHALOPERIDOL]: the affinity, expressed as Ki, was 2.4 nM.
